{"source": "PubChem BioAssay AID540276", "about": "(National Center for Advancing Translational Sciences (NCATS), 2011)", "note": "Among all 300,000 compounds or so, about 5,400 (1.8%) were called active. The inconclusive results got no clear call from the source; some entries with a clear call stand among them for comparison. The call rests on the fitted dose curve; tested in HEK293 cells. Potencies of inconclusive entries are doubtful fits and often do not repeat. On the % scale 0 is the no-effect control and ±100 the full control effect; potency means the concentration at half of the fitted maximal effect."}
{"assay": "qHTS for inhibitors of binding or entry into cells for Marburg Virus", "settings": "Marburg virus pseudotyped entry inhibition, cell reporter; activity change, negative = inhibition: at 37.8 µM (top of the series) unless noted"}
{"molecule": "Cc1ccc(C(=O)Nc2cc(Cl)ccc2N2CCCCC2)s1", "Potency": "inconclusive: 17.8 µM [inhibitor, single point]"}
{"molecule": "O=C(CSc1nc(-c2ccccc2)c(-c2ccccc2)[nH]1)NCCN1C(=O)CSC1=O", "Potency": "inconclusive: 35.5 µM [inhibitor, single point]"}
{"molecule": "CN(CC(=O)Nc1ccccc1Br)C(=O)c1ccccc1OCc1ccccc1Cl", "Potency": "inconclusive: 35.5 µM [inhibitor, single point]"}
{"molecule": "C/C(CC(=O)Nc1cc(C)ccn1)=N\\NC(=O)C(=O)Nc1cccc(C)c1", "activity change, negative = inhibition": "inactive: 36%"}
{"molecule": "CCOn1c(=O)c(-c2cccs2)[n+]([O-])c2ccccc21", "activity change, negative = inhibition": "inactive: 21.8%"}
{"molecule": "Cc1cc(C)n(-c2nc3ccccc3nc2N2CCN(c3cccc(C(F)(F)F)c3)CC2)n1", "activity change, negative = inhibition": "inactive: -0.489% [at 46.1 µM]"}
{"molecule": "CCCn1c(CN2CCN(C(=O)OCC)CC2)nc2cc(NC(=O)CC)ccc21", "Potency": "inconclusive: 3.55 µM [inhibitor, single point]"}
{"molecule": "COc1cccc(NC(=O)c2ccc(S(=O)(=O)NCc3cccnc3)cc2)c1", "activity change, negative = inhibition": "inactive: -31.3% [at 46.1 µM]"}
{"molecule": "CSCCC(NC(=O)COc1ccccc1)C(=O)N1CCN(c2ccccc2Cl)CC1", "note": "(stereo not drawn)", "activity change, negative = inhibition": "inactive: -15.9%"}
{"molecule": "O=C(c1cccnc1)N1c2ccccc2Sc2ccccc21", "Potency": "inconclusive: 35.5 µM [inhibitor, single point]"}
{"molecule": "CCCOc1cccc(C(=O)Nc2cc(NC(=O)c3ccco3)ccc2OC)c1", "Potency": "inconclusive: 20.6 µM [inhibitor, single point]"}
{"molecule": "COc1cc(/C=C/c2nc3ccccc3c(=O)n2-c2ccccc2O)ccc1O", "Potency": "inconclusive: 15.8 µM [inhibitor, single point]"}
{"molecule": "OC(COc1ccccc1)CN1C2=NCCCN2c2ccccc21", "note": "(stereo not drawn)", "Potency": "inconclusive: 11.2 µM [inhibitor, partial curve, poor fit]"}
{"molecule": "COc1ccc(NC(=O)CC2NCCNC2=O)c(OC)c1", "note": "(stereo not drawn)", "activity change, negative = inhibition": "inactive: 1.55% [at 46.1 µM]"}
{"molecule": "O=c1[nH]c2ccccc2n1CCC1CCCCC1", "activity change, negative = inhibition": "inactive: -18.1%"}
{"molecule": "Cc1ccc(S(=O)(=O)NC(=O)NN2CC3CCCC3C2)cc1", "note": "(stereo not drawn)", "Potency": "inconclusive: 3.55 µM [inhibitor, single point]"}
{"molecule": "CSc1nn(Cc2ccc(C)cc2)c(N)c1S(=O)(=O)c1ccccc1", "Potency": "inconclusive: 35.5 µM [inhibitor, single point]"}
{"molecule": "COc1ccc(C(=O)c2sc3nc(-c4ccc(OC)cc4)ccc3c2N)cc1", "activity change, negative = inhibition": "inactive: 3.06% [at 46.1 µM]"}
{"molecule": "OCC1(Cc2ccc(Cl)cc2)CCN(Cc2ccccc2F)CC1", "Potency": "inconclusive: 22.4 µM [inhibitor, single point]"}
{"molecule": "CCN(CC(=O)Nc1cc(Cl)ccc1C)C(=O)Cc1sc(C)nc1-c1ccc(F)cc1", "Potency": "inconclusive: 11.2 µM [inhibitor, partial curve, poor fit]"}
{"molecule": "Cc1sc(NC(=O)c2cc(-c3ccc(Cl)cc3)nc3ccccc23)c(C(N)=O)c1C", "Potency": "inconclusive: 3.55 µM [inhibitor, single point]"}
{"molecule": "Cc1cccc(OP(=O)(Oc2cccc(C)c2)OC(c2ccccc2)C(F)(F)F)c1", "note": "(stereo not drawn)", "Potency": "inconclusive: 11.2 µM [inhibitor, single point]"}
{"molecule": "CCCN(C(=O)c1ccc(N2CCCC2=O)cc1)C1CCS(=O)(=O)C1", "note": "(stereo not drawn)", "activity change, negative = inhibition": "inactive: 2.36%"}
{"molecule": "O=c1c2cc(Cl)ccc2nc(-c2ccccc2Cl)n1O", "Potency": "inconclusive: 0.562 µM [activator, full curve, poor fit]"}
{"molecule": "Oc1ccc(CC2CC3CCN2CC3)cc1O", "note": "(stereo not drawn)", "Potency": "inconclusive: 17.8 µM [activator, single point]"}
{"molecule": "C/C(=C\\c1ccc(N(C)C)cc1)[N+](=O)[O-]", "Potency": "active: 5.17 µM"}
{"molecule": "COc1ccc2oc(=O)c(C(=O)N3CCN(c4ccc(C)cc4)CC3)cc2c1", "activity change, negative = inhibition": "inactive: -2.32% [at 46.1 µM]"}
{"molecule": "COc1ccccc1C(=O)N1CCN=C1c1ccccc1", "Potency": "inconclusive: 32.6 µM [activator, single point]"}
{"molecule": "COc1ccc(/C=C/C(=O)NC(=S)Nc2ccc(Br)cn2)cc1", "activity change, negative = inhibition": "inactive: 17.2% [at 46.1 µM]"}
{"molecule": "O=C1NC(=O)C(=Cc2cn(CCOc3ccc4c(c3)OCO4)c3ccccc23)C(=O)N1", "Potency": "inconclusive: 14.1 µM [inhibitor, partial curve, poor fit]"}
{"molecule": "CCOc1ccc(NC(=O)Nc2ccc(Br)cn2)cc1", "Potency": "inconclusive: 6.31 µM [activator, single point]"}
{"molecule": "COc1ccccc1C(=O)Oc1ccc(C(c2c(C)[nH][nH]c2=O)c2c(C)[nH][nH]c2=O)cc1", "Potency": "inconclusive: 35.5 µM [activator, single point]"}
{"molecule": "COc1ccc(C2CC(c3ccc(Br)cc3)=NN2C(=O)CN2CCCC2)cc1", "note": "(stereo not drawn)", "Potency": "inconclusive: 35.5 µM [inhibitor, single point]"}
{"molecule": "CCOc1ccc(S(=O)(=O)NCCCN2CCCC2=O)cc1", "Potency": "inconclusive: 35.5 µM [activator, single point]"}
{"molecule": "Cc1ccc(-c2nc(N3CCOCC3)s[n+]2-c2ccccc2)cc1", "Potency": "inconclusive: 0.112 µM [activator, full curve, poor fit]"}
{"molecule": "COc1ccc(NC(=O)CSCC(=O)Nc2ccccc2N2CCCCC2)cc1", "Potency": "inconclusive: 35.5 µM [inhibitor, single point]"}
{"molecule": "Cc1nc(NC(=O)c2ccccc2)sc1-c1csc(NCCc2ccccc2)n1", "Potency": "inconclusive: 18.3 µM [inhibitor, single point]"}
{"molecule": "CCOc1ccc(NC(=O)CN(C)C(=O)c2ccc(N3CCCC3)c([N+](=O)[O-])c2)cc1OCC", "Potency": "inconclusive: 0.126 µM [inhibitor, full curve, poor fit]"}
{"molecule": "Cc1cc(C)c(NC(=O)C(C)c2cccc(C(=O)c3ccccc3)c2)c(C)c1", "note": "(stereo not drawn)", "activity change, negative = inhibition": "inactive: -23.1%"}
{"molecule": "O=C(CCCCl)OCc1cn(-c2ccc(Cl)cc2)nn1", "Potency": "inconclusive: 4.47 µM [activator, single point]"}
{"molecule": "CC(=O)N1CC(C)Oc2ccc(S(=O)(=O)Nc3ccc(Cl)cn3)cc21", "note": "(stereo not drawn)", "activity change, negative = inhibition": "inactive: 10.6% [at 46.1 µM]"}
{"molecule": "O=C(Nc1ccc([N+](=O)[O-])cc1)Nc1ccc(OC(F)F)c(Cl)c1", "Potency": "inconclusive: 12.6 µM [inhibitor, partial curve, poor fit]"}
{"molecule": "Cc1c(NC(=O)C(C)Sc2ccc3ccccc3n2)c(=O)n(-c2ccccc2)n1C", "note": "(stereo not drawn)", "Potency": "inconclusive: 35.5 µM [activator, single point]"}
{"molecule": "COC(=O)c1cc(-c2ccc(C)cc2)c2c(=O)n(C)c(=O)n(C)c2n1", "Potency": "inconclusive: 4.47 µM [inhibitor, full curve, poor fit]"}
{"molecule": "COc1ccccc1N1CCN(C(=O)c2ccc(S(=O)(=O)N3CCCCCC3)cc2)CC1", "Potency": "inactive"}
{"molecule": "COc1ccc(C(=O)CN2C(=O)NC3(CCc4ccccc43)C2=O)c(OC)c1", "note": "(stereo not drawn)", "Potency": "inconclusive: 12.6 µM [activator, single point]"}
{"molecule": "O=C(c1csc2c1CCCCC2)N1CCN(c2ncccn2)CC1", "Potency": "inconclusive: 29.1 µM [inhibitor, single point]"}
{"molecule": "COc1cccc(NC(=O)N2CCN(c3cccc(C)c3)C(C)C2)c1", "note": "(stereo not drawn)", "Potency": "inconclusive: 35.5 µM [inhibitor, single point]"}
{"molecule": "C/C(CC(=O)N1CCN(C=O)CC1)=N\\NC(=O)c1cc2ccccc2cc1O", "Potency": "inconclusive: 35.5 µM [inhibitor, partial curve, poor fit]"}
{"molecule": "O=C(Nc1ccc(Br)cc1)c1cc([N+](=O)[O-])cc([N+](=O)[O-])c1", "Potency": "inconclusive: 7.08 µM [inhibitor, single point]"}
{"molecule": "Cc1ccc(NC(=O)CSc2nc(O)cc(=O)n2C)cc1", "activity change, negative = inhibition": "inactive: 1.12% [at 46.1 µM]"}
{"molecule": "CC(C)(C)C(=O)CN1CCN(C2c3ccccc3-c3ccccc32)CC1", "Potency": "inconclusive: 29.1 µM [inhibitor, single point]"}
{"molecule": "COc1ccccc1NC(=O)NNC(=O)CCN1CCOCC1", "Potency": "inconclusive: 6.31 µM [inhibitor, single point]"}
{"molecule": "Cc1ccc(-n2c(Cc3ccccc3)nnc2SCc2nc(-c3cccs3)no2)cc1C", "Potency": "inconclusive: 25.1 µM [inhibitor, single point]"}
{"molecule": "CC(=O)c1ccc(N2C(=O)C3C(C2=O)C(C(=O)c2ccc(Cl)cc2)N2CCCC32)cc1", "note": "(stereo not drawn)", "Potency": "inconclusive: 12.6 µM [inhibitor, single point]"}
{"molecule": "O=C(Cn1c(NCCO)nc2ccccc21)NCCc1ccc(F)cc1", "Potency": "inconclusive: 17.8 µM [activator, partial curve, poor fit]"}
{"molecule": "CCOC(=O)C1CCCN(Cc2cn3c(-c4cccc(Br)c4)nnc3s2)C1", "note": "(stereo not drawn)", "Potency": "inconclusive: 28.2 µM [activator, single point]"}
{"molecule": "CCOC(=O)c1cnc(-n2nc(C)cc2C)nc1NC1CCCCC1", "Potency": "active: 6.31 µM"}
{"molecule": "N#CCN(C(=O)COC(=O)C1CC2CCCC(C1)C2=O)c1ccccc1", "note": "(stereo not drawn)", "Potency": "inconclusive: 20 µM [activator, single point]"}
{"molecule": "Cc1ccc(C(=O)NCCc2nnc(SCC(=O)Nc3nc(-c4ccccc4)cs3)n2C)cc1", "Potency": "inconclusive: 0.0461 µM [activator, partial curve, poor fit]"}
{"molecule": "O=C(Nc1ccc(N=Nc2ccccc2)cc1)c1ccc(Cl)cc1Cl", "activity change, negative = inhibition": "inactive: -6.91%"}
{"molecule": "O=C(Nc1ccc(Cl)cc1)C(NS(=O)(=O)c1cccs1)c1ccccc1", "note": "(stereo not drawn)", "activity change, negative = inhibition": "inactive: -23.9% [at 46.1 µM]"}
{"molecule": "COc1cc(C=NNC(=O)c2cccnc2)ccc1OC(=O)c1ccccc1F", "activity change, negative = inhibition": "inactive: 0.992%"}
{"molecule": "CC(=O)c1c(C)oc2c1cc(NS(=O)(=O)c1ccc(Cl)c(C)c1)c1ccccc12", "Potency": "inconclusive: 35.5 µM [inhibitor, single point]"}
{"molecule": "CCOC(=O)c1ccc(Oc2cc(C)nc(SC)n2)cc1", "Potency": "inconclusive: 11.6 µM [inhibitor, partial curve, poor fit]"}
{"molecule": "Cc1cccc(C)c1NC1=NC2(CCCCC2)N=C(N)N1", "activity change, negative = inhibition": "inactive: 8.84%"}
{"molecule": "CCOc1ccc(N(Cc2ccccc2)C(=O)c2nc(S(C)(=O)=O)ncc2Cl)cc1", "Potency": "inconclusive: 35.5 µM [inhibitor, single point]"}
{"molecule": "S=c1nc2c(n[nH]1)c1ccccc1n2CCc1ccccc1", "Potency": "inconclusive: 2 µM [inhibitor, full curve, poor fit]"}
